Here are results for one compound from patent US9226918B2, “Methods and compositions for treating or preventing narcotic withdrawal symptoms” (The Board of Trustees of the Leland Stanford Junior …, priority 2008, dated 2016).

Read-outs that look alike come from different tables or passages of the source.

One assay relates to Htr3a mRNA. As to conditions: C57BL/6J mice after chronic morphine treatment, relative to saline (FIG. 6B).

On to `CN1CC[C@]23c4c5ccc(O)c4O[C@H]2[C@@H](O)C=C[C@H]3[C@H]1C5` [morphine], for which the “reduction of Htr3a mRNA expression in brainstem nuclei (amygdala, dorsal raphe, periaqueductal gray)” value in the assay with Htr3a mRNA is on record as 2 to 5 fold. Besides, the “5-HT3 content of brainstem protein preparations” value with 5-HT3 protein (129/SvlmJ mice after morphine treatment) is given as “no such changes were observed”; with 5-HT3 protein (C57BL/6J mice after morphine treatment), “statistically significant decreases”.
